Where two headings read alike, the source gives them in different places. Results are given in words; binding and its absence hold for the method and conditions named. Binding seen in cells or lysates may run through a third protein. A yes stands for co-enrichment or nearness to the bait. Other partners may have been found.
B1: dmSpc25R/Mitch (protein, UniProt Q9V3V7 1-222)
chain: MAIIMTESSYERRVKALYEKQIHMEALEAKFIKKVFKFNSNLLDVKEAASRHQRKVGKLQKVLMERREELDKRVSFIEELDRELEATKLHNLAMKDWFKQQKMLAKQRKNEIMESIHTLSKTTRTYINQEALPARVKGVTVLRGDKRDQLIPFDLKATDVEGLDSLCQHLESLNVDVAQWQQLISLAMDMAMESRAPTTPPKEADNCKSIIEIDLTSPMSHT
B2: CG7611 (protein, UniProt Q7K0L4 1-630)
chain: MQSTSSTSSGSCSRPLEGSTLNSGGSAENVARDGGSGDDSVGIGDENPSGSSAATNGHDSKHNGFIVNNNGSSSRIVDGENNRENTSCSGVQLDKSNQEIIRLIGQYLHDVGLDKSVQTLMLESGCYLEHPSATKFREHVLMGDWSKADSDLKDLEPLIDNGKLATITEMKFILLEQKYLEHLDDGNPLDALHVLRSELTPLQHNITRVHQLSSYMMCSTNQDLYQRAKWEGKGILSRALVMERLQTFMPPSVMMSPRRLRTLLQQAVELQSQHCPCHDMAWETNLETVSLLTDHCCTTDGFPMQTIQILTDHCDEVWFCKFSPDGLKLATGSKDSTVIIWDVDPYKLTLKHRRVLDGQAQLSVSFVSWSPDSKLILVGGTEDSHELYIWNVDDGKLVVKFSQSLEDSLACGAFSRDGARFVCGGQKGQLYLCDLNGTIVDSWEGVRVNSIAFRADNKTILAADNHYRIRGYNFDSPRSDFDILREPHPIMTFSINSADRLALLNVSNQGLHLWDIEDKCLVRRFQGIRQSNFAIHSCFGGVNESFVASGSEDKVVYIWHIKREEPLAKLAGHTKTVNCVSWNPVYPSLLASASDDATVRIWGPKPNGSSATTESDDCSSSSSSSSWNMT
B3: ZW10 (protein, UniProt Q9W4X9 1-721)
chain: MEEEAPRFNVLEEAFNGNGNGCANVEATQSAILKVLTRVNRFQMRVRKHIEDNYTEFLPNNTSPDIFLEESGSLNREIHDMLENLGSEGLDALDEANVKMAGNGRQLREILLGLGVSEHVLRIDELFQCVEEAKATKDYLVLLDLVGRLRAFIYGDDSVDGDAQVATPEVRRIFKALECYETIKVKYHVQAYMLQQSLQERFDRLVQLQCKSFPTSRCVTLQVSRDQTQLQDIVQALFQEPYNPARLCEFLLDNCIEPVIMRPVMADYSEEADGGTYVRLSLSYATKEPSSAHVRPNYKQVLENLRLLLHTLAGINCSVSRDQHVFGIIGDHVKDKMLKLLVDECLIPAVPESTEEYQTSTLCEDVAQLEQLLVDSFIINPEQDRALGQFVEKYETYYRNRMYRRVLETAREIIQRDLQDMVLVAPNNHSAEVANDPFLFPRCMISKSAQDFVKLMDRILRQPTDKLGDQEADPIAGVISIMLHTYINEVPKVHRKLLESIPQQAVLFHNNCMFFTHWVAQHANKGIESLAALAKTLQATGQQHFRVQVDYQSSILMGIMQEFEFESTHTLGSGPLKLVRQCLRQLELLKNVWANVLPETVYNATFCELINTFVAELIRRVFTLRDISAQMACELSDLIDVVLQRAPTLFREPNEVVQVLSWLKLQQLKAMLNASLMEITELWGDGVGPLTASYKSDEIKHLIRALFQDTDWRAKAITQIV
B4: Topoisomerase II (protein, UniProt P15348 1-1447)
chain: MENGNKALSIEQMYQKKSQLEHILLRPDSYIGSVEFTKELMWVYDNSQNRMVQKEISFVPGLYKIFDEILVNAADNKQRDKSMNTIKIDIDPERNMVSVWNNGQGIPVTMHKEQKMYVPTMIFGHLLTSSNYNDDEKKVTGGRNGYGAKLCNIFSTSFTVETATREYKKSFKQTWGNNMGKASDVQIKDFNGTDYTRITFSPDLAKFKMDRLDEDIVALMSRRAYDVAASSKGVSVFLNGNKLGVRNFKDYIDLHIKNTDDDSGPPIKIVHEVANERWEVACCPSDRGFQQVSFVNSIATYKGGRHVDHVVDNLIKQLLEVLKKKNKGGINIKPFQVRNHLWVFVNCLIENPTFDSQTKENMTLQQKGFGSKCTLSEKFINNMSKSGIVESVLAWAKFKAQNDIAKTGGRKSSKIKGIPKLEDANEAGGKNSIKCTLILTEGDSAKSLAVSGLGVIGRDLYGVFPLRGKLLNVREANFKQLSENAEINNLCKIIGLQYKKKYLTEDDLKTLRYGKVMIMTDQDQDGSHIKGLLINFIHTNWPELLRLPFLEEFITPIVKATKKNEELSFYSLPEFEEWKNDTANHHTYNIKYYKGLGTSTSKEAKEYFQDMDRHRILFKYDGSVDDESIVMAFSKKHIESRKVWLTNHMDEVKRRKELGLPERYLYTKGTKSITYADFINLELVLFSNADNERSIPSLVDGLKPGQRKVMFTCFKRNDKREVKVAQLSGSVAEMSAYHHGEVSLQMTIVNLAQNFVGANNINLLEPRGQFGTRLSGGKDCASARYIFTIMSPLTRLIYHPLDDPLLDYQVDDGQKIEPLWYLPIIPMVLVNGAEGIGTGWSTKISNYNPREIMKNLRKMINGQEPSVMHPWYKNFLGRMEYVSDGRYIQTGNIQILSGNRLEISELPVGVWTQNYKENVLEPLSNGTEKVKGIISEYREYHTDTTVRFVISFAPGEFERIHAEEGGFYRVFKLTTTLSTNQMHAFDQNNCLRRFPTAIDILKEYYKLRREYYARRRDFLVGQLTAQADRLSDQARFILEKCEKKLVVENKQRKAMCDELLKRGYRPDPVKEWQRRIKMEDAEQADEEDEEEEEAAPSVSSKAKKEKEVDPEKAFKKLTDVKKFDYLLGMSMWMLTEEKKNELLKQRDTKLSELESLRKKTPEMLWLDDLDALESKLNEVEEKERAEEQGINLKTAKALKGQKSASAKGRKVKSMGGGAGAGDVFPDPDGEPVEFKITEEIIKKMAAAAKVAQAAKEPKKPKEPKEPKVKKEPKGKQIKAEPDASGDEVDEFDAMVEGGSKTSPKAKKAVVKKEPGEKKPRQKKENGGGLKQSKIDFSKAKAKKSDDDVEEVTPRAERPGRRQASKKIDYSSLFSDEEEDGGNVGSDDDGNASDDDSPKRPAKRGREDESSGGAKKKAPPKKRRAVIESDDDDIEIDEDDDDDSDFNC
B5: FKBP39 (protein, UniProt P54397 1-357)
chain: MSMFWGLNMKPERKYSQTIIKSFHISGVALDKGQEAKLYLAAEKQEYIVATVTKAIPQVALDLNFSKGDRIMFYTAGDASVSLLGYLHDIDSEDDEDDDQMTIENLLNSKAIKNSKKSEDDEDENESGEEDEEDTDDDSQIIEEYESFLENGEEEDDDDVDEDNEESGEEDEQDSDDSEAEEEQPKAKVAKLSPGASAKKSGKEQNGVAKKEEAKQQQKKKEKPEAKKEQPKAKEPAKQQPASKDPRTITGGVKIVDQVVGKGEEAKQGKRVSVYYIGRLQSNNKTFDSLLKGKPFKFALGGGEVIKGWDVGVAGMKVGGKRVITCPPHMAYGARGAPPKIGPNSTLVFEVELKAVH

The chains behind the UniProt entries cited, without tags or fusion partners. Where a name states a change or a piece, a line headed by the entry shows the natural chain unless it says otherwise.
UniProt Q9VM45: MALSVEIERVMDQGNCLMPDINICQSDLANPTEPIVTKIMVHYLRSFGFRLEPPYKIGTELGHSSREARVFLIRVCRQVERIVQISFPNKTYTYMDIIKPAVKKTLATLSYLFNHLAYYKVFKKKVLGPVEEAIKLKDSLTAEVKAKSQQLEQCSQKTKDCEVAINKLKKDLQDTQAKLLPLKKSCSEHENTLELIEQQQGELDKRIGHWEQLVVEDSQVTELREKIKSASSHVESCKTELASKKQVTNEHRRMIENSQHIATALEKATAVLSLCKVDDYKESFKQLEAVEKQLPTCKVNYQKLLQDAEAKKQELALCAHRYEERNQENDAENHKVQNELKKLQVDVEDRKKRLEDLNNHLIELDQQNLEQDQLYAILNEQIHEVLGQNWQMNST
UniProt Q9VYB1: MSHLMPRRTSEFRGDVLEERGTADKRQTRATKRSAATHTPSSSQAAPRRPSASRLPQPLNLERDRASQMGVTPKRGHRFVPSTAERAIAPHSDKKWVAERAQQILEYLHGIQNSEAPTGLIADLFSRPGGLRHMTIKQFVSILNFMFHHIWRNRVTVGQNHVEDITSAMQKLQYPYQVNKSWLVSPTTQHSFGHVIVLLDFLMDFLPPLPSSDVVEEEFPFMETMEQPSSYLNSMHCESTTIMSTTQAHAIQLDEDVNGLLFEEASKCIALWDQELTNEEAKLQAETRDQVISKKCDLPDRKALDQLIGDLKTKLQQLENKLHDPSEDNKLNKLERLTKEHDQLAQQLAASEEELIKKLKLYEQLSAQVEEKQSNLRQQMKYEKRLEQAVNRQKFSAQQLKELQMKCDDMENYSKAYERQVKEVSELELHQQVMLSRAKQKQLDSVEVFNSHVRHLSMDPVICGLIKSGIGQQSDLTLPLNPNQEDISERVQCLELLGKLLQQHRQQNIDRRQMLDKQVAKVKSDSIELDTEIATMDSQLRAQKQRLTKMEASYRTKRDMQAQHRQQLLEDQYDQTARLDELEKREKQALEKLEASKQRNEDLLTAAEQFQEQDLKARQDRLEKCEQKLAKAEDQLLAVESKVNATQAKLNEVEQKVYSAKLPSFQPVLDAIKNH
UniProt Q7JZC9: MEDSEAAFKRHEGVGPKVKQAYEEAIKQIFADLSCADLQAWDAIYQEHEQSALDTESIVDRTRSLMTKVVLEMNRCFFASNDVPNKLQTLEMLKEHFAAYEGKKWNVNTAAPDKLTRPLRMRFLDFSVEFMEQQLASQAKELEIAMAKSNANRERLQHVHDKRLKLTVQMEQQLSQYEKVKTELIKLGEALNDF
UniProt Q9VS01: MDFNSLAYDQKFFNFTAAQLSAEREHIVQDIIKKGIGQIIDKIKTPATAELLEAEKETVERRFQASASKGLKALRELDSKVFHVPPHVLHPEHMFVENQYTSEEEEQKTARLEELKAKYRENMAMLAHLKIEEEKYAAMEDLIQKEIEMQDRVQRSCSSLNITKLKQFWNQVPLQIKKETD
UniProt P45889: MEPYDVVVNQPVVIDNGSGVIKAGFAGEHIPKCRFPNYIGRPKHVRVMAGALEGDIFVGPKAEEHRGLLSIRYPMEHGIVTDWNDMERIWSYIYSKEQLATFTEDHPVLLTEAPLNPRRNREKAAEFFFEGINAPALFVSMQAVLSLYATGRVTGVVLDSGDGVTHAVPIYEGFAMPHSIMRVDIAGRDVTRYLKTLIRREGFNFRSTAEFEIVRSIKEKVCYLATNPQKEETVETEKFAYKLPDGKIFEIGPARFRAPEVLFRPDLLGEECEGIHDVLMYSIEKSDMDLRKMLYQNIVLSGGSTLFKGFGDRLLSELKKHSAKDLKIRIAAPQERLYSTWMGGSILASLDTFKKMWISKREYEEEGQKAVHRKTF
UniProt Q9VWS1: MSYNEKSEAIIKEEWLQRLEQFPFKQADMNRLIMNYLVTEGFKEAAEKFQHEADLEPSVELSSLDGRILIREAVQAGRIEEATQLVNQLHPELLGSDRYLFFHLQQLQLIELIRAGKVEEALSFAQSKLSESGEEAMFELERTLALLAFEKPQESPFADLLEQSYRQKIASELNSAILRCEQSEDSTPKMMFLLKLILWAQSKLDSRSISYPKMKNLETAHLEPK
UniProt Q9W2N0: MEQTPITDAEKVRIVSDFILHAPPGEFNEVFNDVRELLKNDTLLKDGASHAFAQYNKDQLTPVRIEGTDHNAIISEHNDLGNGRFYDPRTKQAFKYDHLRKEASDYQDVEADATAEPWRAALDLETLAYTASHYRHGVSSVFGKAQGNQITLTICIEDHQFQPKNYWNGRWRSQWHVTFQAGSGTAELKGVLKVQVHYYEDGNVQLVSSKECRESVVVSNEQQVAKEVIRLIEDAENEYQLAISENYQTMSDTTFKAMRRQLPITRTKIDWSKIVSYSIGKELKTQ
UniProt Q9XYZ5: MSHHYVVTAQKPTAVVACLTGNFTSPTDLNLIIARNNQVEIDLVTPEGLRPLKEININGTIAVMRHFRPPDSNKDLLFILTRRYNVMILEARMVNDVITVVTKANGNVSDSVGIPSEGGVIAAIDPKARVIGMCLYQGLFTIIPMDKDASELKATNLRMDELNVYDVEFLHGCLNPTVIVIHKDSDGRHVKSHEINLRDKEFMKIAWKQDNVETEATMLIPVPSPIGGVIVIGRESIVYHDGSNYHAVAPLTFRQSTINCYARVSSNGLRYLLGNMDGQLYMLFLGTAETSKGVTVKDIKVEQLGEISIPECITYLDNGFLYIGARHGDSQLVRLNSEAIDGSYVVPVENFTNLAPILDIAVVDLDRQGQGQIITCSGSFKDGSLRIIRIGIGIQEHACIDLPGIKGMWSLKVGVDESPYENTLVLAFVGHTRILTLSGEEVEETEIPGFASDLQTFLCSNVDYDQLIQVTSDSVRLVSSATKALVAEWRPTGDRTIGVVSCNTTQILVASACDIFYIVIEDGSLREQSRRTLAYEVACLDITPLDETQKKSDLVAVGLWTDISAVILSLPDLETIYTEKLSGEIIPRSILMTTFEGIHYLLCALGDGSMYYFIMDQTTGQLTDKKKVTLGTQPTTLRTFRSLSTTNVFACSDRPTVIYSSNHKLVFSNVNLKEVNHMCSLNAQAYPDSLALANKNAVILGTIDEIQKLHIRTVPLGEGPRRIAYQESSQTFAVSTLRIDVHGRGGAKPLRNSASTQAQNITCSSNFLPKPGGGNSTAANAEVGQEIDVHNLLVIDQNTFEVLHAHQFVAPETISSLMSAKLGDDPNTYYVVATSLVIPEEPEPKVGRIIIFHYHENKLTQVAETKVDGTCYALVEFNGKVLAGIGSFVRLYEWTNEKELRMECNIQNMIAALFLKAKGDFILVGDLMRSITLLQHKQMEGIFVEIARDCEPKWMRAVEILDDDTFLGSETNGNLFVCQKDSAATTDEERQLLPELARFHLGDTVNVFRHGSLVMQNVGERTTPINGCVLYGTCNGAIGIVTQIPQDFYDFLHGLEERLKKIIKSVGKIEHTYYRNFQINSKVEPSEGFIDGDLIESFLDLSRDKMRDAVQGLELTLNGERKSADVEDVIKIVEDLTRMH
UniProt Q9VCU6: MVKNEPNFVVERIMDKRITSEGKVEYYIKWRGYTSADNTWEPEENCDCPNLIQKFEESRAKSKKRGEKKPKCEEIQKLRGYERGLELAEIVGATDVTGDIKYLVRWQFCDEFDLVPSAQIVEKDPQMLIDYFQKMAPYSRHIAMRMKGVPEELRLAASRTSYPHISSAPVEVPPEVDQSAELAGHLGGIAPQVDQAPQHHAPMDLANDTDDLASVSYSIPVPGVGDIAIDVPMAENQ
UniProt Q8IPW3: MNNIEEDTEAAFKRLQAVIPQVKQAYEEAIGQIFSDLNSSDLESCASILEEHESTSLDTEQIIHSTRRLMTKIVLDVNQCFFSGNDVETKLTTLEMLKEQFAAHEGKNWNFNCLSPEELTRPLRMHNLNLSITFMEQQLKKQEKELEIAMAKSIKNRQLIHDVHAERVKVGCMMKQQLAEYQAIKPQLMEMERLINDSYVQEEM
UniProt Q9VYX4: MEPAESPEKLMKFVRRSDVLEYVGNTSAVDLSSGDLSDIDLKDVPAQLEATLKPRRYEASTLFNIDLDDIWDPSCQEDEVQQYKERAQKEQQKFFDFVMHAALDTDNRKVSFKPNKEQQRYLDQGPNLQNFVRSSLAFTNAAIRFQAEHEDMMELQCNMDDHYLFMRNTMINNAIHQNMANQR
UniProt Q9VPB2: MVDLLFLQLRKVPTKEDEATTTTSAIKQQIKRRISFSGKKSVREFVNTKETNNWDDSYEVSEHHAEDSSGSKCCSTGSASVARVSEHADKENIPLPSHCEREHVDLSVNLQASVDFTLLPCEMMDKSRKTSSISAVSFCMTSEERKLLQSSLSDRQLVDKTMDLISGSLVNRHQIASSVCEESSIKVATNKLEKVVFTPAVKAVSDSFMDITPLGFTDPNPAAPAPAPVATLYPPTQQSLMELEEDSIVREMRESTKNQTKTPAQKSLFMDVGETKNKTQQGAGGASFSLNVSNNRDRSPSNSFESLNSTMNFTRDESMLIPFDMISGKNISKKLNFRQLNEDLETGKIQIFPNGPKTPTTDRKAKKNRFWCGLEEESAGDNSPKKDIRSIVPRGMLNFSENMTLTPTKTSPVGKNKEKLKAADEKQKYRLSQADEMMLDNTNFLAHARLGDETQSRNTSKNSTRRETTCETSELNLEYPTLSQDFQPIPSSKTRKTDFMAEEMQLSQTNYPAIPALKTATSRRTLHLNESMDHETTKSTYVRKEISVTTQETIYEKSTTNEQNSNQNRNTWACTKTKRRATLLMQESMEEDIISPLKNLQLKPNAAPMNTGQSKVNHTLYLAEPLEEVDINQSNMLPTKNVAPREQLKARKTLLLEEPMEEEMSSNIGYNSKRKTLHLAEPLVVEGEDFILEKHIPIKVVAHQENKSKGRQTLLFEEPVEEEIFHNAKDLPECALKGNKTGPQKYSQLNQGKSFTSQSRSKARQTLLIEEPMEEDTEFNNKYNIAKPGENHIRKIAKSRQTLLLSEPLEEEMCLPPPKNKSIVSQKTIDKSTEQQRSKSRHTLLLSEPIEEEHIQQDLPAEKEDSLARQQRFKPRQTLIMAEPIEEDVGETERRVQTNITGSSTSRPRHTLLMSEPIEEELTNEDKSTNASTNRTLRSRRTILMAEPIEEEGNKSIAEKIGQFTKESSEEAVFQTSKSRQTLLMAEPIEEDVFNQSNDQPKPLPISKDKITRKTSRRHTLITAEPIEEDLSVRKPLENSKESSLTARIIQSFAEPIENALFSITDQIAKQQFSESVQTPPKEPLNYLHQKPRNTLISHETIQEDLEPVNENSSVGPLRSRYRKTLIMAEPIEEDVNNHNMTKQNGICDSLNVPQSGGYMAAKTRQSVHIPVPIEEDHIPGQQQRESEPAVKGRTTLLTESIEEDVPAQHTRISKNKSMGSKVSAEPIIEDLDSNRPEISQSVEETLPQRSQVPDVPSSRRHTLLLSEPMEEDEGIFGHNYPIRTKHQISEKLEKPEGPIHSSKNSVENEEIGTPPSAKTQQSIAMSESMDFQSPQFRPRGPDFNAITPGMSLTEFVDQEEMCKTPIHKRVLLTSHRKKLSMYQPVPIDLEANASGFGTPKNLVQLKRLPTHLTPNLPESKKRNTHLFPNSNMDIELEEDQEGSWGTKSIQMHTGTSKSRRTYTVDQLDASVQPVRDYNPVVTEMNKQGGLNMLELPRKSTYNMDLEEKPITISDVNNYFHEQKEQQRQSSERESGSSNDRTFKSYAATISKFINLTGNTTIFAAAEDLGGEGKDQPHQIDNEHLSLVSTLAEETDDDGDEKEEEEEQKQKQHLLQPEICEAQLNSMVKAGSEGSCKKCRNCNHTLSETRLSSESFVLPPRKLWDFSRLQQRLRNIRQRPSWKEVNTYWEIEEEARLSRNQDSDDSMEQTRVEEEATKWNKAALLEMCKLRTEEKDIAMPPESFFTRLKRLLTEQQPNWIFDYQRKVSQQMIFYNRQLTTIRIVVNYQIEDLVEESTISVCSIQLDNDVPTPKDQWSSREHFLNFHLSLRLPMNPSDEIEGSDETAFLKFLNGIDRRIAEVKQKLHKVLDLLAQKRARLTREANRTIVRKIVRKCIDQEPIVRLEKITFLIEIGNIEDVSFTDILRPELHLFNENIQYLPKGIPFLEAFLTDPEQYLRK

Tests used:
Experiment in all cases: affinity purification with mass spectrometry; Protein A- or TAP-tagged bait stably expressed in D-mel cells; whole cell extracts of asynchronous cultures; single step on Dynabeads with rabbit IgG, 2-4 hours; buffer A (75 mM HEPES pH7.5, 150 mM KCl, 1.5 mM EGTA, 1.5 mM MgCl2, 7.5% glycerol, 0.1% NP40, Benzonase), six washes; elution with 1 M NH4OH; SDS-PAGE bands analysed by LC-MS/MS (MASCOT)
[1] = biological target: dmNuf2-PrA (Drosophila melanogaster) (UniProt Q9VM45)
[2] = biological target: Protein A::dmNdc80 (Drosophila melanogaster) (UniProt Q9VYB1)
[3] = biological target: dmNnf1R-2::protein A (Drosophila melanogaster) (UniProt Q7JZC9)
[4] = biological target: dmMis12-PrA (Drosophila melanogaster) (UniProt Q9VS01)
[5] = biological target: dmMis12-PrA (Drosophila melanogaster) (UniProt Q9VS01); remark: listed apart in the source
[6] = biological target: dmNuf2-PrA (Drosophila melanogaster) (UniProt Q9VM45); remark: listed apart in the source
[7] = biological target: Protein A::dmNdc80 (Drosophila melanogaster) (UniProt Q9VYB1); remark: listed apart in the source
[8] = biological target: dmNnf1R-2::protein A (Drosophila melanogaster) (UniProt Q7JZC9); remark: listed apart in the source

Molecule	binding [1]	binding [2]	binding [4]	other results
Arp87C (from UniProt P45889 1-376)	binds			
CG6617 (from UniProt Q9VWS1)		binds		
CG10540 (from UniProt Q9W2N0 1-286)		binds		
DDB-1 (from UniProt Q9XYZ5 1-1140)		binds		binding [3]: binds
DDP1 (from UniProt A1ZB76)	binds	binds	binds	
HP1c (from UniProt Q9VCU6)		binds		
Rod (from UniProt Q9V9W7)			binds	binding [3]: binds
dmNdc80 (from UniProt Q9VYB1)	binds		binds	
dmNnf1R-1 (from UniProt Q8IPW3)	binds	binds	binds	
dmNnf1R-2 (from UniProt Q7JZC9)	binds	binds	binds	
dmNsl1R (from UniProt Q9VYX4)	binds	binds	binds	
dmNuf2 (from UniProt Q9VM45)		binds	binds	
dmSpc105R (from UniProt Q9VPB2)	binds	binds	binds	
B1				binding [5]: binds; binding [6]: binds
B2				binding [6]: binds; binding [7]: binds
B3				binding [8]: binds; binding [7]: binds
B4				binding [7]: binds
B5				binding [5]: binds; binding [6]: binds; binding [7]: binds

— paper PMC1868777
